# The list shows a part of the results, in another mix than the full data. At the low end of the ranking the order means little.
# How the values were obtained:
# Assay in all cases: DAPPL (digital affinity profiling via proximity ligation, sequencing)
# Details in all cases: 10 mM Tris-HCl pH 7.5, 50 mM NaCl, 1 mM DTT, 4% glycerol, room temperature, 30 min; GST-TFs on glutathione beads, 16-mer random dsDNA library, 0.1% …; high values mean tight binding; double strand, one strand shown; scale: fold enrichment (6-mer frequency, TF over GST control)
# ELK3 = target: T1, ELK3 (UniProt P41970)
# T1 sequence: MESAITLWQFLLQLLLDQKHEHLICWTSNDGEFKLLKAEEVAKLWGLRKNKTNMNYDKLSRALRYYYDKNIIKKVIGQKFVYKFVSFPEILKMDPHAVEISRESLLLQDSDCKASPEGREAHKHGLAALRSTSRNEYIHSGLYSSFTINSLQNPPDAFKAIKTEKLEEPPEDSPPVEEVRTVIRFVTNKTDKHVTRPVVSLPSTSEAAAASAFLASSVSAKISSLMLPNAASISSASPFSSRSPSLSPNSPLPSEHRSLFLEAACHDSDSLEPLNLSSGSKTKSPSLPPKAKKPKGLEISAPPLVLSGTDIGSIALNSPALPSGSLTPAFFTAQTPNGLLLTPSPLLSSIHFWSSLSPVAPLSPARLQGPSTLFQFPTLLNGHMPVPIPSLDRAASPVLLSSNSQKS
# SPIC = target: T2, SPIC (UniProt Q8N5J4)
# T2 sequence: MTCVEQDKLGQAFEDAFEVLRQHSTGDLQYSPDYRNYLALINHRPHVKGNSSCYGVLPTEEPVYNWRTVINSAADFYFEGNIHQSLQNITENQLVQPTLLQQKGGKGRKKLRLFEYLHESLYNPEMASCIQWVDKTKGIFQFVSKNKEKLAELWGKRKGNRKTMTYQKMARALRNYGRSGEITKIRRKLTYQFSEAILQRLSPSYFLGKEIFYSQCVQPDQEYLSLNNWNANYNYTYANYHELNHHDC
# ETV3 = target: T3, ETV3 (UniProt P41162-2)
# T3 sequence: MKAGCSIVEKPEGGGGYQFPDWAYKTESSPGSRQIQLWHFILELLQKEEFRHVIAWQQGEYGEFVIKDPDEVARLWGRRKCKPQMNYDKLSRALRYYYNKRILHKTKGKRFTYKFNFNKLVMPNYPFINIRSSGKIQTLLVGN
# ELK1 = target: T4, ELK1 (UniProt P19419)
# T4 sequence: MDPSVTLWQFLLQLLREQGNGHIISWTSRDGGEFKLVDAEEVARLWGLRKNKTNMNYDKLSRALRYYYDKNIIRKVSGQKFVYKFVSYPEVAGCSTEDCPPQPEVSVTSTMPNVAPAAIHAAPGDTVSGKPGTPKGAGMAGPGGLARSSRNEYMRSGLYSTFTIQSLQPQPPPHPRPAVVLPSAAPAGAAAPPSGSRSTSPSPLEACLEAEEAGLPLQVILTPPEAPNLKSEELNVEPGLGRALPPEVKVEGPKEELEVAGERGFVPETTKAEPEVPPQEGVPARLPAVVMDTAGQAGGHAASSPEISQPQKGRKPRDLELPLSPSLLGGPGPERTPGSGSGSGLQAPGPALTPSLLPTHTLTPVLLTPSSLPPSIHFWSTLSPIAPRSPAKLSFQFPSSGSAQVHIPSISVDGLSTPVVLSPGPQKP
# ETS2 = target: T5, ETS2 (UniProt P15036)
# T5 sequence: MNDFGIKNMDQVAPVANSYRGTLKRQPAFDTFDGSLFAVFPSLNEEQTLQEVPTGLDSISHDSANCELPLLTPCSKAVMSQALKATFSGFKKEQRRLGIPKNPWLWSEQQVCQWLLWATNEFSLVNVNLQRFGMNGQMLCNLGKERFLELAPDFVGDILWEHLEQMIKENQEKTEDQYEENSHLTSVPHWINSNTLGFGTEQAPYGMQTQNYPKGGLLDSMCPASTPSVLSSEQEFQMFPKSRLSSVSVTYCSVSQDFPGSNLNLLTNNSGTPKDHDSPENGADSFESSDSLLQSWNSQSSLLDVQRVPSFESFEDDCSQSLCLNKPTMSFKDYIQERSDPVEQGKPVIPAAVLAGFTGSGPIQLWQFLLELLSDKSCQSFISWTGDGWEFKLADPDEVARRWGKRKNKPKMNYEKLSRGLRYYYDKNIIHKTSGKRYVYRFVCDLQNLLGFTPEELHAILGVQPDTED
sequence,measurement,setting,value
CATAGT,binding signal,ELK3,0.959
same,binding signal,SPIC,0.935
same,binding signal,ETV3,0.981
CCGGTG,binding signal,ELK3,1.08
same,binding signal,SPIC,0.928
CGTCTT,binding signal,ELK3,1.28
same,binding signal,SPIC,1.38
ATAGCG,binding signal,ELK3,1.05
same,binding signal,SPIC,1.03
same,binding signal,ETV3,0.976
CCTCAA,binding signal,ELK3,1.44
same,binding signal,SPIC,1.46
AAAAAC,binding signal,ELK3,1.31
same,binding signal,SPIC,1.27
TCATGT,binding signal,ELK3,0.995
same,binding signal,SPIC,0.805
CCCACC,binding signal,ELK3,1.16
same,binding signal,SPIC,1.21
TAAGAA,binding signal,ELK3,1.15
same,binding signal,SPIC,1.21
same,binding signal,ETV3,1.07
CAACTT,binding signal,ELK3,1.59
same,binding signal,SPIC,1.77
same,binding signal,ETV3,1.55
TCAGCT,binding signal,ELK3,0.959
same,binding signal,SPIC,0.88
same,binding signal,ETV3,1.05
CCCGTC,binding signal,ELK3,0.935
same,binding signal,SPIC,0.958
GCTATC,binding signal,ELK3,1.12
same,binding signal,SPIC,0.957
GAAGTA,binding signal,ELK3,2.1
same,binding signal,SPIC,2.19
TCAAAA,binding signal,ELK3,1.17
same,binding signal,SPIC,1.24
same,binding signal,ETV3,1.15
ACCCTT,binding signal,ELK3,1.2
same,binding signal,SPIC,1.02
CCCCAG,binding signal,ELK3,0.936
same,binding signal,SPIC,1.14
same,binding signal,ETV3,1.07
TCAGAT,binding signal,ELK3,0.935
same,binding signal,SPIC,0.932
CCATCA,binding signal,ELK3,1.2
same,binding signal,SPIC,1.09
same,binding signal,ETV3,1.12
GTATCT,binding signal,ELK3,1.09
same,binding signal,SPIC,1.15
GGGTTC,binding signal,ELK3,0.97
same,binding signal,SPIC,1.02
same,binding signal,ETV3,1.1
TGTTAC,binding signal,ELK1,1.55
AATCTA,binding signal,ELK1,1.06
same,binding signal,ETS2,1.16
TAATTA,binding signal,ELK1,1.2
ACCCAA,binding signal,ELK1,1.15
AAGGAT,binding signal,ELK1,1.19
TTTTTG,binding signal,ELK1,1.29
GATCCC,binding signal,ELK1,1.16
CTTAAT,binding signal,ELK1,1.2
same,binding signal,ETS2,1.37
CATTAC,binding signal,ELK1,1
ATGACC,binding signal,ELK1,1.58
GTCCCG,binding signal,ELK1,1.2
GCCGCT,binding signal,ELK1,1.08
AGTGGC,binding signal,ELK1,1.19
AGTGCC,binding signal,ELK1,0.973
same,binding signal,ETS2,0.999
TCTAGA,binding signal,ELK1,0.99
CTGTGC,binding signal,ELK1,1.18
CATGGT,binding signal,ELK1,1.29
CTAGAA,binding signal,ELK1,1
same,binding signal,ETS2,1.02
AACTAC,binding signal,ELK1,1.42
TATTGA,binding signal,ELK1,1.16
CACTAC,binding signal,ELK1,1.37
TATACC,binding signal,ELK1,1.31
CCTAAC,binding signal,ELK1,1.43
CTACAA,binding signal,ELK1,1.13
ATTGGT,binding signal,ELK1,1.34
GTTCTG,binding signal,ELK1,1.21
ATTTCG,binding signal,ELK1,1.25
CTCATC,binding signal,ELK1,1.36
AAGCCT,binding signal,ELK1,1.22
TACTCC,binding signal,ELK1,1.2
GGGTTT,binding signal,ELK1,0.97
TAAGCC,binding signal,ELK1,1.12
same,binding signal,ETS2,1.15
AAATAA,binding signal,ELK1,1.32
ACCTTC,binding signal,ELK1,1.94
GACTCC,binding signal,ELK1,1.23
GCTTGT,binding signal,ELK1,0.956
same,binding signal,ETS2,1.07
TGATAT,binding signal,ELK1,1.11
AAACCG,binding signal,ELK1,1.05
AGTAGC,binding signal,ELK1,0.981
CCCGCT,binding signal,ELK1,1.31
same,binding signal,ETS2,1.22
CACCCT,binding signal,ELK1,1.26
same,binding signal,ETS2,1.09
GTTAAA,binding signal,ELK1,0.923
same,binding signal,ETS2,0.969
TTCGAT,binding signal,ELK1,1.23
same,binding signal,ETS2,1.33
GCGGAA,binding signal,ELK1,1.33
same,binding signal,ETS2,1.42
CAACTC,binding signal,ELK1,1.23
same,binding signal,ETS2,1.26
CCTCAG,binding signal,ELK1,1.23
same,binding signal,ETS2,1.25
CTCGTC,binding signal,ELK1,1.27
same,binding signal,ETS2,1.46
GCTCCG,binding signal,ELK1,1.4
same,binding signal,ETS2,1.33
TGGTCG,binding signal,ELK1,0.968
same,binding signal,ETS2,0.956
ATACGC,binding signal,ELK1,1.14
same,binding signal,ETS2,1.11

# Another view of part of the listing above.
sequence	measurement	setting	value
CAACTT	binding signal	ETV3	1.55
TCAGCT	binding signal	ELK3	0.959
same	binding signal	SPIC	0.88
same	binding signal	ETV3	1.05
CCCGTC	binding signal	ELK3	0.935

# 2 records drawn at random from those above, as already listed:
sequence,measurement,setting,value
CATAGT,binding signal,ETV3,0.981
TTTTTG,binding signal,ELK1,1.29

# Source: article PMC7862700
